This is one part of the list. Many values rest on one well or one pass, so single values are uncertain.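 The apoptosis fraction was the count of cleaved-PARP antibody-stained nuclei relative to all DNA-stained nuclei, imaged in 1,536-well plates. Screening doses were set so most cells survived, and baseline and induced cleaved-PARP levels vary greatly across cell lines.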
Test system: A2058
Test: cleaved PARP positive nuclei fraction relative to DMSO control; melanoma cells; higher = more apoptosis
Details: library dose: low library concentration; 72 h

Compound | cleaved PARP positive nuclei fraction
Cn1c(Nc2ccc(C(F)(F)F)cc2)nc2cc(Oc3ccnc(-c4ncc(C(F)(F)F)[nH]4)c3)ccc21 + O=C(Oc1ccc([N+](=O)[O-])cc1)N1CCC(C(O)(c2ccc3c(c2)OCO3)c2ccc3c(c2)OCO3)CC1 [JZL184] (first compound 0.08 µM, partner dose 1 µM) | 213%
C/C(O)=C(\C#N)C(=O)Nc1cc(Br)ccc1Br + COc1cc(N2CCC(N3CCN(C)CC3)CC2)ccc1Nc1ncc(Cl)c(Nc2ccccc2S(=O)(=O)C(C)C)n1 [NVP-TAE684] (first compound 2 µM, partner dose 0.08 µM) | 81.1%
Cc1cc(SCc2sc(-c3ccc(C(F)(F)F)c(F)c3)nc2C)ccc1OCC(=O)O + Cc1cc([N+](=O)[O-])ccc1NS(=O)(=O)c1cc(Cl)ccc1Cl [FH535] (first compound 2 µM, partner dose 1 µM) | 44.4%
C[As](C)SC[C@H](NC(=O)CC[C@H](N)C(=O)O)C(=O)NCC(=O)O [Darinaparsin] + O=S(=O)(c1ccccc1)N(CC(F)(F)F)c1ccc(C(O)(C(F)(F)F)C(F)(F)F)cc1 [T0901317] (first compound 0.4 µM, partner dose 1.4 µM) | 59.3%
Cc1cc(SCc2sc(-c3ccc(C(F)(F)F)c(F)c3)nc2C)ccc1OCC(=O)O + Oc1nc(-c2ccc(C(F)(F)F)cc2)nc2c1CSCC2 [XAV939] (first compound 2 µM, partner dose 2 µM) | 174%
CCc1ccc(CCOc2ccc(CC3SC(=O)NC3=O)cc2)nc1 (configuration not stated) [pioglitazone] + Cc1cc(SCc2sc(-c3ccc(C(F)(F)F)c(F)c3)nc2C)ccc1OCC(=O)O [GW0742] (first compound 2 µM, partner dose 2 µM) | 233%
Cc1cc(N2CCOCC2)cc2[nH]c(-c3c(NC[C@@H](O)c4cccc(Cl)c4)cc[nH]c3=O)nc12 + O=C(Oc1ccc([N+](=O)[O-])cc1)N1CCC(C(O)(c2ccc3c(c2)OCO3)c2ccc3c(c2)OCO3)CC1 [JZL184] (first compound 0.2 µM, partner dose 1 µM) | 139%
C[As](C)SC[C@H](NC(=O)CC[C@H](N)C(=O)O)C(=O)NCC(=O)O [Darinaparsin] + O=C(Oc1ccc([N+](=O)[O-])cc1)N1CCC(C(O)(c2ccc3c(c2)OCO3)c2ccc3c(c2)OCO3)CC1 [JZL184] (first compound 0.4 µM, partner dose 1 µM) | 46.7%
Cc1cc(SCc2sc(-c3ccc(C(F)(F)F)c(F)c3)nc2C)ccc1OCC(=O)O + c1cc(-c2cnn3cc(-c4ccc(OCCN5CCCCC5)cc4)cnc23)ccn1 [Dorsomorphin] (first compound 2 µM, partner dose 0.4 µM) | 114%
C#Cc1cccc(Nc2ncnc3cc(OCCOC)c(OCCOC)cc23)c1 [erlotinib] + C/C(O)=C(\C#N)C(=O)Nc1cc(Br)ccc1Br [LFM-A13] (first compound 0.8 µM, partner dose 2 µM) | 80%
C/C(O)=C(\C#N)C(=O)Nc1cc(Br)ccc1Br + O=c1cc(-c2cccc3c2Sc2ccccc2S3)oc(N2CCOCC2)c1 [KU55933] (first compound 2 µM, partner dose 1 µM) | 101%
Cc1cc(SCc2sc(-c3ccc(C(F)(F)F)c(F)c3)nc2C)ccc1OCC(=O)O + Oc1cc(-c2nc(-c3ccccc3)[nH]c2-c2ccncc2)ccc1Cl [L779450] (first compound 2 µM, partner dose 0.2 µM) | 52.5%
O=C(Nc1cccc(Cl)c1)Nc1ncc(CCNc2ncnc3ccsc23)s1 + O=C(Oc1ccc([N+](=O)[O-])cc1)N1CCC(C(O)(c2ccc3c(c2)OCO3)c2ccc3c(c2)OCO3)CC1 [JZL184] (first compound 0.0008 µM, partner dose 1 µM) | 115%
COc1ccc(-c2ccc3c(N4CCOCC4)nc(N4C[C@@H](C)O[C@@H](C)C4)nc3n2)cc1CO + O=C(Oc1ccc([N+](=O)[O-])cc1)N1CCC(C(O)(c2ccc3c(c2)OCO3)c2ccc3c(c2)OCO3)CC1 [JZL184] (first compound 0.02 µM, partner dose 1 µM) | 125%
Cc1nc(Nc2ncc(C(=O)Nc3c(C)cccc3Cl)s2)cc(N2CCN(CCO)CC2)n1 [dasatanib] + C/C(O)=C(\C#N)C(=O)Nc1cc(Br)ccc1Br [LFM-A13] (first compound 0.004 µM, partner dose 2 µM) | 219%
COCC[n+]1c2c(n(Cc3cnccn3)c1C)C(=O)c1ccccc1C2=O + Cc1cc(SCc2sc(-c3ccc(C(F)(F)F)c(F)c3)nc2C)ccc1OCC(=O)O [GW0742] (first compound 0.0004 µM, partner dose 2 µM) | 369%

Individual results from the entries so far.
C[As](C)SC[C@H](NC(=O)CC[C@H](N)C(=O)O)C(=O)NCC(=O)O [Darinaparsin] + O=S(=O)(c1ccccc1)N(CC(F)(F)F)c1ccc(C(O)(C(F)(F)F)C(F)(F)F)cc1 [T0901317] (first compound 0.4 µM, partner dose 1.4 µM) | cleaved PARP positive nuclei fraction: 59.3%
Cc1cc(SCc2sc(-c3ccc(C(F)(F)F)c(F)c3)nc2C)ccc1OCC(=O)O + c1cc(-c2cnn3cc(-c4ccc(OCCN5CCCCC5)cc4)cnc23)ccn1 [Dorsomorphin] (first compound 2 µM, partner dose 0.4 µM) | cleaved PARP positive nuclei fraction: 114%

Next results follow:

Compound | cleaved PARP positive nuclei fraction
COc1cc(N2CCC(N3CCN(C)CC3)CC2)ccc1Nc1ncc(Cl)c(Nc2ccccc2S(=O)(=O)C(C)C)n1 + O=C(Oc1ccc([N+](=O)[O-])cc1)N1CCC(C(O)(c2ccc3c(c2)OCO3)c2ccc3c(c2)OCO3)CC1 [JZL184] (first compound 0.08 µM, partner dose 1 µM) | 65.8%
NCC(=O)Nc1ccc(-n2nc(C(F)(F)F)cc2-c2ccc3c(ccc4ccccc43)c2)cc1 + Cc1cc(SCc2sc(-c3ccc(C(F)(F)F)c(F)c3)nc2C)ccc1OCC(=O)O [GW0742] (first compound 1 µM, partner dose 2 µM) | 93.6%
C/C(O)=C(\C#N)C(=O)Nc1cc(Br)ccc1Br + Cn1cc(/C=C2\C(=O)Nc3cccnc32)c2ccccc21 [GW441756] (first compound 2 µM, partner dose 0.4 µM) | 48.1%
C[As](C)SC[C@H](NC(=O)CC[C@H](N)C(=O)O)C(=O)NCC(=O)O [Darinaparsin] + c1cc(-c2cnn3cc(-c4ccc(OCCN5CCCCC5)cc4)cnc23)ccn1 [Dorsomorphin] (first compound 0.4 µM, partner dose 0.4 µM) | 56.2%
CCc1ccc(CCOc2ccc(CC3SC(=O)NC3=O)cc2)nc1 (configuration not stated) [pioglitazone] + C/C(O)=C(\C#N)C(=O)Nc1cc(Br)ccc1Br [LFM-A13] (first compound 2 µM, partner dose 2 µM) | 52.3%
Nc1cccc2c1CN(C1CCC(=O)NC1=O)C2=O (configuration not stated) [lenalidomide] + Cc1cc(SCc2sc(-c3ccc(C(F)(F)F)c(F)c3)nc2C)ccc1OCC(=O)O [GW0742] (first compound 1 µM, partner dose 2 µM) | 249%
Cc1cc(SCc2sc(-c3ccc(C(F)(F)F)c(F)c3)nc2C)ccc1OCC(=O)O + CC(C)CCN1c2nc(Nc3cc(F)c(O)c(F)c3)ncc2N(C)C(=O)C1C [BID1870] (first compound 2 µM, partner dose 0.2 µM) | 60.4%
C[As](C)SC[C@H](NC(=O)CC[C@H](N)C(=O)O)C(=O)NCC(=O)O [Darinaparsin] + COc1cc2ncnc(Nc3ccc(Oc4ccccc4)cc3)c2cc1OC [SrcI1] (first compound 0.4 µM, partner dose 2 µM) | 217%
COc1ccc(-c2ccc3c(N4CCOCC4)nc(N4C[C@@H](C)O[C@@H](C)C4)nc3n2)cc1CO + Cc1cc(SCc2sc(-c3ccc(C(F)(F)F)c(F)c3)nc2C)ccc1OCC(=O)O [GW0742] (first compound 0.02 µM, partner dose 2 µM) | 124%
O=S(=O)(c1ccccc1)N(CC(F)(F)F)c1ccc(C(O)(C(F)(F)F)C(F)(F)F)cc1 + C/C(O)=C(\C#N)C(=O)Nc1cc(Br)ccc1Br [LFM-A13] (first compound 1.4 µM, partner dose 2 µM) | 122%
O=C(O)c1ccc(-c2c[nH]c3ncc(-c4ccccc4)cc23)cc1C1CCCC1 + O=C(Oc1ccc([N+](=O)[O-])cc1)N1CCC(C(O)(c2ccc3c(c2)OCO3)c2ccc3c(c2)OCO3)CC1 [JZL184] (first compound 0.16 µM, partner dose 1 µM) | 152%
Cn1nnc2c(C(N)=O)ncn2c1=O [temozolomide] + O=C(Oc1ccc([N+](=O)[O-])cc1)N1CCC(C(O)(c2ccc3c(c2)OCO3)c2ccc3c(c2)OCO3)CC1 [JZL184] (first compound 2 µM, partner dose 1 µM) | 128%
Cc1cc(SCc2sc(-c3ccc(C(F)(F)F)c(F)c3)nc2C)ccc1OCC(=O)O + COc1cc(N2CCC(N3CCN(C)CC3)CC2)ccc1Nc1ncc(Cl)c(Nc2ccccc2S(=O)(=O)C(C)C)n1 [NVP-TAE684] (first compound 2 µM, partner dose 0.08 µM) | 153%
CCN(CC)CCCCNc1ncc2cc(-c3cc(OC)cc(OC)c3)c(NC(=O)NC(C)(C)C)nc2n1 + C/C(O)=C(\C#N)C(=O)Nc1cc(Br)ccc1Br [LFM-A13] (first compound 0.1 µM, partner dose 2 µM) | 61%
CN(NC(=O)CC(=O)NN(C)C(=S)c1ccccc1)C(=S)c1ccccc1 + C/C(O)=C(\C#N)C(=O)Nc1cc(Br)ccc1Br [LFM-A13] (first compound 0.006 µM, partner dose 2 µM) | 236%
CCN(CC)CCCCNc1ncc2cc(-c3cc(OC)cc(OC)c3)c(NC(=O)NC(C)(C)C)nc2n1 + Cc1cc(SCc2sc(-c3ccc(C(F)(F)F)c(F)c3)nc2C)ccc1OCC(=O)O [GW0742] (first compound 0.1 µM, partner dose 2 µM) | 109%

— the supplement of paper PMC4604168 (melanoma cell lines)
